Reference: the supplement of paper PMC12823440, “Inhibitors supercharge kinase turnover through native proteolytic circuits” (Nature, 2025)
The other results are listed elsewhere or left out. Hit calls seldom repeat between salt and free forms of one compound.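 In K562 cells expressing nanoluciferase-fused kinases, luminescence was recorded at 4 h intervals between 2 and 18 h, normalized as percent of control with DMSO at 100% and a positive control at 0%. A significant (2 sigma) signal drop marks a time point as decreased. The authors' rule for a hit is not shown and takes in more than the number of time points.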

Amino acid sequences for entries named in this document (tags omitted). A change or cut given only in a name is not applied to a line headed by its entry.
UniProt P51813: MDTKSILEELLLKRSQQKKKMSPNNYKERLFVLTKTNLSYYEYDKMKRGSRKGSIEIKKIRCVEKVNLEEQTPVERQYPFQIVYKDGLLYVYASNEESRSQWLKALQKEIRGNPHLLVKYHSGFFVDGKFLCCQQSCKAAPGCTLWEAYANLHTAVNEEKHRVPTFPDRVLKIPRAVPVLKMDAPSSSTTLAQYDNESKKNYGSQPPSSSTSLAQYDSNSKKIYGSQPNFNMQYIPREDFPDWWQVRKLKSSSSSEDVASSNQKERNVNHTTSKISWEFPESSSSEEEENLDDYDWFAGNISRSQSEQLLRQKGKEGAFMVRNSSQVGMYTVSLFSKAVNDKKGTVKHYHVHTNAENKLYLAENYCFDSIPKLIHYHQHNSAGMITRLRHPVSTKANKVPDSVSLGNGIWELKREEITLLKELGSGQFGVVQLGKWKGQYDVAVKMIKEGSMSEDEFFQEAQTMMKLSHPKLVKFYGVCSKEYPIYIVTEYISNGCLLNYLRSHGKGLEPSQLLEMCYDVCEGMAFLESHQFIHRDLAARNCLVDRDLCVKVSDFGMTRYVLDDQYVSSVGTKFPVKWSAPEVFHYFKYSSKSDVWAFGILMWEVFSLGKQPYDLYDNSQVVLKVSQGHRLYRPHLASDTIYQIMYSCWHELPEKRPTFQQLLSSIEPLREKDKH
UniProt P21860, whole entry: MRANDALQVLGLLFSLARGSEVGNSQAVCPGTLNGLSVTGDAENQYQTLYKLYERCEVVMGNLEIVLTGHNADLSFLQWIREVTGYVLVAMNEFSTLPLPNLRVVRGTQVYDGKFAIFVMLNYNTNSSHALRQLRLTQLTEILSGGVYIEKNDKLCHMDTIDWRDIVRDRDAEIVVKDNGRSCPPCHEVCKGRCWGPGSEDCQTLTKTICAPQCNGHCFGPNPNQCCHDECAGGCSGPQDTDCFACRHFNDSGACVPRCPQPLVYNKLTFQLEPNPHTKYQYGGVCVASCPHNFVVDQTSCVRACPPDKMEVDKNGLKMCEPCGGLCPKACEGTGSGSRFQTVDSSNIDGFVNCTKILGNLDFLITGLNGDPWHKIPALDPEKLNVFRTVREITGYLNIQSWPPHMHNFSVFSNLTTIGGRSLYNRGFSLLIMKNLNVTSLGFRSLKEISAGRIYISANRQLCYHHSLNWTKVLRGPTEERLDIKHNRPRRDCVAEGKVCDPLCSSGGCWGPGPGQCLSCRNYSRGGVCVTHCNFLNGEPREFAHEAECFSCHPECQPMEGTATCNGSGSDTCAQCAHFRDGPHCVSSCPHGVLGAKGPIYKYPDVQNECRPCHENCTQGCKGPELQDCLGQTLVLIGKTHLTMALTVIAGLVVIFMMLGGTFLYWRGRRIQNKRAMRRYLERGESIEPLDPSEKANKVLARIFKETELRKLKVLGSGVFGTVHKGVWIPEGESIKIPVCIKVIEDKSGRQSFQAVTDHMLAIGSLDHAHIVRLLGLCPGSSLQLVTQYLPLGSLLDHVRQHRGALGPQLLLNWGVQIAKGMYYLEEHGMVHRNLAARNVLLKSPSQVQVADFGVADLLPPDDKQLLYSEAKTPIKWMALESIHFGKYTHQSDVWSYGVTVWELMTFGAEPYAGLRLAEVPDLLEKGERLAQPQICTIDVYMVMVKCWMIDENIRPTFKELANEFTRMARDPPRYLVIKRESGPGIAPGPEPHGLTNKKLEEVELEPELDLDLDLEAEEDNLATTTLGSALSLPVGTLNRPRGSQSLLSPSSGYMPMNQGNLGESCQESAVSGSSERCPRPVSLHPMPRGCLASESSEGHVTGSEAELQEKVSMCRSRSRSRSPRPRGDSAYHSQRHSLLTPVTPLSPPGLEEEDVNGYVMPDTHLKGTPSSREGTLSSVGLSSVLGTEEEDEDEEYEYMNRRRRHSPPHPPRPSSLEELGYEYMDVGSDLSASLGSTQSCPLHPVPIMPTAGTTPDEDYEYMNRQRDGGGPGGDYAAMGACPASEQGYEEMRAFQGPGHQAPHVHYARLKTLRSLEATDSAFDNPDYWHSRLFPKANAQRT
UniProt Q13546: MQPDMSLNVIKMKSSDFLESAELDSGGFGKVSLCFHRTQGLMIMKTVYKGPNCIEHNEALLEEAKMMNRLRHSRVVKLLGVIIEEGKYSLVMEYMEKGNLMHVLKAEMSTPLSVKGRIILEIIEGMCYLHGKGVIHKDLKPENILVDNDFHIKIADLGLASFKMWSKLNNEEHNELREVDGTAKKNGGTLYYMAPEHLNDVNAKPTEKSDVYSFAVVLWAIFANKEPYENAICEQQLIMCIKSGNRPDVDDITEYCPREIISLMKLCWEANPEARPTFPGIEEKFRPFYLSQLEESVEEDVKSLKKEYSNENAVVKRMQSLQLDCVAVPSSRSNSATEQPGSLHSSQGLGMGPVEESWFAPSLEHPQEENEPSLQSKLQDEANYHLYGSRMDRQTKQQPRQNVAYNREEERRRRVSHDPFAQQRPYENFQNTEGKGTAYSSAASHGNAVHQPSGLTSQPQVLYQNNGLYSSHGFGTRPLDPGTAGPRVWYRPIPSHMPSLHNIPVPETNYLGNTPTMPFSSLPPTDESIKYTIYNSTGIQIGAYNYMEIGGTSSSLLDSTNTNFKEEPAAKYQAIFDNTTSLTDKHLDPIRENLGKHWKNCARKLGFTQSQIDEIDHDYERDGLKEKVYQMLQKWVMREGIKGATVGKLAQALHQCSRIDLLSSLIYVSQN
UniProt Q8IWU2: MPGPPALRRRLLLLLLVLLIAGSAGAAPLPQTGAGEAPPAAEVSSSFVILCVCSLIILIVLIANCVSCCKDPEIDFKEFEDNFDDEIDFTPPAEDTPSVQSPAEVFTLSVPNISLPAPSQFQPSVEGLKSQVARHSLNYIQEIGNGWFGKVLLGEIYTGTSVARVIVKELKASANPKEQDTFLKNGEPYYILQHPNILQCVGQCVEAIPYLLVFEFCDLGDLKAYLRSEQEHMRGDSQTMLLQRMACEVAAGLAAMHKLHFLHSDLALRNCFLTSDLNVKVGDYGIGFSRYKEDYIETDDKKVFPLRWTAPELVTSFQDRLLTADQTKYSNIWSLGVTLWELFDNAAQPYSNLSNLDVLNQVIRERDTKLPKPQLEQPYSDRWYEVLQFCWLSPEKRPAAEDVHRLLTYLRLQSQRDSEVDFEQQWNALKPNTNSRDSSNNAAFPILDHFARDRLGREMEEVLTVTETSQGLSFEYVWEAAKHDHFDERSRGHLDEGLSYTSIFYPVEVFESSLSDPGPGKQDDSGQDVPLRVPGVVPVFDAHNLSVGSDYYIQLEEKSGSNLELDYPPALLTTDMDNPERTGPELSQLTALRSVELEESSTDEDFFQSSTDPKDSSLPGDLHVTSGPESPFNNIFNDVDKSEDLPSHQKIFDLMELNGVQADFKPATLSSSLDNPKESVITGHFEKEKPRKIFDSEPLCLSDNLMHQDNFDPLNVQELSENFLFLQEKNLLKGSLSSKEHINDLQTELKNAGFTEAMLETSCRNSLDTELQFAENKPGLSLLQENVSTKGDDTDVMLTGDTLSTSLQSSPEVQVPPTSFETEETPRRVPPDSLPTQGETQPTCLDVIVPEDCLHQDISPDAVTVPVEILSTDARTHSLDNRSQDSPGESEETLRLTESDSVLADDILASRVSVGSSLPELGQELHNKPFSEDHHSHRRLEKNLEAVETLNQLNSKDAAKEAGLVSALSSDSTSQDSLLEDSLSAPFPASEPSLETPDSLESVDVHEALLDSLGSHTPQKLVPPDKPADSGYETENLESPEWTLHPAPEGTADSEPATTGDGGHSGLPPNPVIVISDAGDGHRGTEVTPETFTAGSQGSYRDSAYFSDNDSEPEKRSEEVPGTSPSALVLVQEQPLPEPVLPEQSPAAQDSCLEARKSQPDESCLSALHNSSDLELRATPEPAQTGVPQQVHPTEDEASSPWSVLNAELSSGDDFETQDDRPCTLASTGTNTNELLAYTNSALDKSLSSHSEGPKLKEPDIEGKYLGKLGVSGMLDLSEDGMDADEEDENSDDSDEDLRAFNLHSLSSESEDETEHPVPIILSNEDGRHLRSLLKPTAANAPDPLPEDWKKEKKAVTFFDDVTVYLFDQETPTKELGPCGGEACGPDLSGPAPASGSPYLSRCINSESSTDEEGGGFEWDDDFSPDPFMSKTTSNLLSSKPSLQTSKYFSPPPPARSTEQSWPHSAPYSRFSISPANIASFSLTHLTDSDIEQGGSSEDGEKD
UniProt Q12851: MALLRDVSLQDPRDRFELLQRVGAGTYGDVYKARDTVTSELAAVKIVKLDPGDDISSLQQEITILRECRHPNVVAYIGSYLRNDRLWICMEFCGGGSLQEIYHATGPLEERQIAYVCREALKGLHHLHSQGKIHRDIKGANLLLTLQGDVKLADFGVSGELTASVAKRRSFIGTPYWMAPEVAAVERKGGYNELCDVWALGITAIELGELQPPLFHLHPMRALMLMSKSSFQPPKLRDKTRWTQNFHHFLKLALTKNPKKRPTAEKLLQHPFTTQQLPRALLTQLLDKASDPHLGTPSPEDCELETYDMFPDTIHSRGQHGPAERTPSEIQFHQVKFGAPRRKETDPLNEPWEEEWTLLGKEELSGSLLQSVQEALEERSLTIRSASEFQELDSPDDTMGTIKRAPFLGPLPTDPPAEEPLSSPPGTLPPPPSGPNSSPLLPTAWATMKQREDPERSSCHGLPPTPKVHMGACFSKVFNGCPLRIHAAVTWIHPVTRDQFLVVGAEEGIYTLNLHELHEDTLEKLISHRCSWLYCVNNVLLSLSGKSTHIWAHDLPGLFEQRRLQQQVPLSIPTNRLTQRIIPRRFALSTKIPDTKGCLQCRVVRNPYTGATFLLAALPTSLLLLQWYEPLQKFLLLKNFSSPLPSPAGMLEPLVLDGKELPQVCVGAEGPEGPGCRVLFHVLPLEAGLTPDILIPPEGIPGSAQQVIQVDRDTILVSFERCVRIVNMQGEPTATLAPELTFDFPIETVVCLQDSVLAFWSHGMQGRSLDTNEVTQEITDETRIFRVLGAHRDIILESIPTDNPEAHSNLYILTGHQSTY

Assays:
Assay in all cases: number of time points (of 5) at which kinase-Nluc abundance scored as decreased, DMSO-normalised (count); higher = more persistent destabilization
[1] = compound: C#Cc1cccc(Nc2ncnc3cc(OCCOC)c(OCCO)cc23)c1 [Desmethyl Erlotinib (hydrochloride)]; details: 10 µM; K562; 2-18 h
Desmethyl Erlotinib = compound: C#Cc1cccc(Nc2ncnc3cc(OCCOC)c(OCCO)cc23)c1 [Desmethyl Erlotinib]; details: 10 µM; K562; 2-18 h
[2] = compound: C#Cc1cccc(Nc2ncnc3cc(OCCOC)c(OCCOC)cc23)c1 [Erlotinib (Hydrochloride)]; details: 10 µM; K562; 2-18 h
Erlotinib = compound: C#Cc1cccc(Nc2ncnc3cc(OCCOC)c(OCCOC)cc23)c1 [Erlotinib]; details: 10 µM; K562; 2-18 h
Icotinib (Hydrochloride) = compound: C#Cc1cccc(Nc2ncnc3cc4c(cc23)OCCOCCOCCO4)c1 [Icotinib (Hydrochloride)]; details: 10 µM; K562; 2-18 h
Icotinib = compound: C#Cc1cccc(Nc2ncnc3cc4c(cc23)OCCOCCOCCO4)c1 [Icotinib]; details: 10 µM; K562; 2-18 h
(Z)-Guggulsterone = compound: C/C=C1\C(=O)C[C@H]2[C@@H]3CCC4=CC(=O)CC[C@]4(C)[C@H]3CC[C@]12C [(Z)-Guggulsterone]; details: 10 µM; K562; 2-18 h
Guggulsterone = compound: C/C=C1\C(=O)C[C@H]2[C@@H]3CCC4=CC(=O)CC[C@]4(C)[C@H]3CC[C@]12C [Guggulsterone]; details: 10 µM; K562; 2-18 h
[3] = compound: C=CC(=O)N1CCN(c2ncnc3c(F)c(-c4c(O)cccc4F)c(Cl)cc23)CC1; details: K562, 2-18 h
Mobocertinib (succinate) = compound: C=CC(=O)Nc1cc(Nc2ncc(C(=O)OC(C)C)c(-c3cn(C)c4ccccc34)n2)c(OC)cc1N(C)CCN(C)C [Mobocertinib (succinate)]; details: 10 µM; K562; 2-18 h
Mobocertinib = compound: C=CC(=O)Nc1cc(Nc2ncc(C(=O)OC(C)C)c(-c3cn(C)c4ccccc34)n2)c(OC)cc1N(C)CCN(C)C [Mobocertinib]; details: 10 µM; K562; 2-18 h
Osimertinib (dimesylate) = compound: C=CC(=O)Nc1cc(Nc2nccc(-c3cn(C)c4ccccc34)n2)c(OC)cc1N(C)CCN(C)C [Osimertinib (dimesylate)]; details: 2.5 µM; K562; 2-18 h
Osimertinib mesylate = compound: C=CC(=O)Nc1cc(Nc2nccc(-c3cn(C)c4ccccc34)n2)c(OC)cc1N(C)CCN(C)C [Osimertinib mesylate]; details: 2.5 µM; K562; 2-18 h
Osimertinib = compound: C=CC(=O)Nc1cc(Nc2nccc(-c3cn(C)c4ccccc34)n2)c(OC)cc1N(C)CCN(C)C [Osimertinib]; details: 2.5 µM; K562; 2-18 h
[4] = compound: C=CC(=O)Nc1cc(Nc2nccc(-c3cn(C4CC4)c4ccccc34)n2)c(OC)cc1N(C)CCN(C)C [Almonertinib (hydrochloride)]; details: 2.5 µM; K562; 2-18 h
Almonertinib = compound: C=CC(=O)Nc1cc(Nc2nccc(-c3cn(C4CC4)c4ccccc34)n2)c(OC)cc1N(C)CCN(C)C [Almonertinib]; details: 2.5 µM; K562; 2-18 h
AV-412 (free base) = compound: C=CC(=O)Nc1cc2c(Nc3ccc(F)c(Cl)c3)ncnc2cc1C#CC(C)(C)N1CCN(C)CC1 [AV-412 (free base)]; details: 2.5 µM; K562; 2-18 h
[5] = compound: C=CC(=O)Nc1cc2c(Nc3ccc(F)c(Cl)c3)ncnc2cc1C#CC(C)(C)N1CCN(C)CC1; details: 2.5 µM; K562; 2-18 h
[6] = compound: CC(=O)N[C@H](Cc1ccc(O)cc1)C(=O)N[C@H](CCCN=C(N)N)C(=O)N[C@H](Cc1ccccc1)C(N)=O; details: 10 µM; K562; 2-18 h
[7] = compound: CC(=O)Nc1cccc(-n2c(=O)n(C3CC3)c(=O)c3c(Nc4ccc(I)cc4F)n(C)c(=O)c(C)c32)c1 [Trametinib (DMSO solvate)]; details: 10 µM; K562; 2-18 h

Measured: number of time points

BMX (UniProt P51813)
5: [1] | [5]
0: Desmethyl Erlotinib | [2] | Erlotinib | Icotinib (Hydrochloride) | Icotinib | (Z)-Guggulsterone | Guggulsterone | [3]; 2.5 µM | [3]; 10 µM | Mobocertinib | Osimertinib (dimesylate) | Osimertinib mesylate | Osimertinib | [4] | Almonertinib | [6] | [7]
4: AV-412 (free base)
1: Mobocertinib (succinate)

ERBB3 (UniProt P21860)
2: Icotinib | [7]
0: [1] | Desmethyl Erlotinib | [2] | Erlotinib | Icotinib (Hydrochloride) | (Z)-Guggulsterone | Guggulsterone | [3]; 2.5 µM | [3]; 10 µM | Mobocertinib (succinate) | Mobocertinib | Osimertinib (dimesylate) | Osimertinib mesylate | Osimertinib | [4] | Almonertinib | AV-412 (free base) | [5] | [6]

RIPK1 (UniProt Q13546)
0: [1] | Desmethyl Erlotinib | [2] | Erlotinib | Icotinib (Hydrochloride) | (Z)-Guggulsterone | Guggulsterone | [3]; 2.5 µM | [3]; 10 µM | Mobocertinib (succinate) | Mobocertinib | Osimertinib (dimesylate) | Osimertinib mesylate | Osimertinib | [4] | Almonertinib | AV-412 (free base) | [5] | [6] | [7]
3: Icotinib

RIPK2 (UniProt O43353)
0: Desmethyl Erlotinib | [2] | Icotinib (Hydrochloride) | Icotinib | (Z)-Guggulsterone | Guggulsterone | [3]; 2.5 µM | [3]; 10 µM | Mobocertinib (succinate) | Mobocertinib | Osimertinib (dimesylate) | Osimertinib mesylate | Osimertinib | [4] | Almonertinib | AV-412 (free base) | [5] | [6] | [7]
2: Erlotinib
3: [1]

LMTK2 (UniProt Q8IWU2)
0: [1] | Desmethyl Erlotinib | [2] | Erlotinib | Icotinib (Hydrochloride) | (Z)-Guggulsterone | Guggulsterone | [3]; 2.5 µM | [3]; 10 µM | Mobocertinib (succinate) | Mobocertinib | Osimertinib (dimesylate) | Osimertinib mesylate | Osimertinib | [4] | Almonertinib | [5] | [6] | [7]
1: AV-412 (free base)
2: Icotinib

MAP4K2 (UniProt Q12851)
0: [1] | Desmethyl Erlotinib | [2] | Erlotinib | Icotinib (Hydrochloride) | Icotinib | (Z)-Guggulsterone | Guggulsterone | [3]; 2.5 µM | [3]; 10 µM | Mobocertinib (succinate) | Mobocertinib | Osimertinib (dimesylate) | Osimertinib mesylate | Osimertinib | [4] | Almonertinib | AV-412 (free base) | [5] | [6] | [7]

EGFR_L718V (UniProt P00533)
0: [1] | Desmethyl Erlotinib | Icotinib (Hydrochloride) | Icotinib | (Z)-Guggulsterone | Guggulsterone | [3]; 2.5 µM | [3]; 10 µM | Mobocertinib (succinate) | Mobocertinib | [4] | Almonertinib | AV-412 (free base) | [5] | [6] | [7]

FGR (UniProt P09769)
0: [1] | Desmethyl Erlotinib | [2] | Erlotinib | Icotinib (Hydrochloride) | Icotinib | (Z)-Guggulsterone | Guggulsterone | [3]; 2.5 µM | [3]; 10 µM | Mobocertinib (succinate) | Mobocertinib | Osimertinib (dimesylate) | Osimertinib mesylate | Osimertinib | [4] | Almonertinib | AV-412 (free base) | [5] | [6] | [7]
